Literature values as cited in patent US20100209542A1, “Methods For Treating Withdrawal From Addictive Compounds” (priority 2008, published 2010).
Read-outs that look alike come from different tables or passages of the source. For at least one compound, name, drawing or mass did not settle the structure.

Test system: mu-opiate receptors
Conditions: rats, two cycles of 10-day cocaine/10-day withdrawal, cited from earlier work

COC(=O)[C@H]1[C@@H](OC(=O)c2ccccc2)C[C@@H]2CC[C@H]1N2C [cocaine]
downregulation of mu-opiate receptors, decrease (core of the nucleus accumbens): 16% | downregulation of mu-opiate receptors, lower than saline-treated controls (limbic cortical layer 3): 17% | downregulation of mu-opiate receptors, decrease (nucleus of the diagonal band): 18%
